Test results from PMC2729930.
Results are given in words; binding and its absence hold for the method and conditions named. Binding seen in cells or lysates may run through a third protein. Some entries that bind do so weakly or less than the wild type. Tags and fused reporters may be left off the sequences shown.

Protein sequences, listed by entry. Tags and fused reporters are not part of them. Residues count along the entry.
UniProt P11021, residues 148-654: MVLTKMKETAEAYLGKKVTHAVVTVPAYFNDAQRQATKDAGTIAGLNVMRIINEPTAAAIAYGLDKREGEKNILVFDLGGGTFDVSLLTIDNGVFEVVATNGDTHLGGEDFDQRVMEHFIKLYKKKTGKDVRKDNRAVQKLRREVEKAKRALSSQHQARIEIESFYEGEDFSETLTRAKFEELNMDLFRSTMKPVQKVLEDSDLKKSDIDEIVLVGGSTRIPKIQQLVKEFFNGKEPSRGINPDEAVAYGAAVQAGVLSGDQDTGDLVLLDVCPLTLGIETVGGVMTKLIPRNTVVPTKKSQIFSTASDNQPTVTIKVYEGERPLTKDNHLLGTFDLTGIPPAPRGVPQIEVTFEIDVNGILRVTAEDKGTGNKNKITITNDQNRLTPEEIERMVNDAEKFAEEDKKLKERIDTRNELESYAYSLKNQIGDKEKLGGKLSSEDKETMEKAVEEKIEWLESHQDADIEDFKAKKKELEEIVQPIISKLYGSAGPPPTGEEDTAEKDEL

Key:
FLAG-P58^IPK = biological target: T1, FLAG-P58^IPK (UniProt Q13217); assay: co-IP; lysates of co-transfected 293T cells; immunoprecipitation with anti-FLAG antibody or control mouse IgG, then Western blot; cells non-treated or treated with Tg (300 nM) for 16 hours
T1 sequence: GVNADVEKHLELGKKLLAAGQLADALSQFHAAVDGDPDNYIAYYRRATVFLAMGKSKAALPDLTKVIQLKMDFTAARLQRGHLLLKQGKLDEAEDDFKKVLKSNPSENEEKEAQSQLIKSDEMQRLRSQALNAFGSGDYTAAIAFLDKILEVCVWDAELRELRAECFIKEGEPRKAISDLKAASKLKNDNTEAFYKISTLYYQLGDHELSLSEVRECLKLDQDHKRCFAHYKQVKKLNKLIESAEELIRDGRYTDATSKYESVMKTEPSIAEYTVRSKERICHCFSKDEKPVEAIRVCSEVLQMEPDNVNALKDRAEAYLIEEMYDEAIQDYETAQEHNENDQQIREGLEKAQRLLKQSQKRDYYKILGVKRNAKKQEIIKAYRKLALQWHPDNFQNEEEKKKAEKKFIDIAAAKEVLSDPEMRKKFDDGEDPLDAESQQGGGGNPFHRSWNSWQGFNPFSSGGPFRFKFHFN

P58^IPK-FLAG = biological target: T2, P58^IPK-FLAG (UniProt Q13217); assay: as above
T2 sequence: T1 sequence

Substance: HA-GRP78va (from UniProt P11021 148-654)
- binding (FLAG-P58^IPK): binds
- binding (P58^IPK-FLAG): binds
